In this test the target is T1, KIN (endogenous) (human (endogenous in KYSE30 and HEK293T)) (UniProt O60870).
T1 sequence: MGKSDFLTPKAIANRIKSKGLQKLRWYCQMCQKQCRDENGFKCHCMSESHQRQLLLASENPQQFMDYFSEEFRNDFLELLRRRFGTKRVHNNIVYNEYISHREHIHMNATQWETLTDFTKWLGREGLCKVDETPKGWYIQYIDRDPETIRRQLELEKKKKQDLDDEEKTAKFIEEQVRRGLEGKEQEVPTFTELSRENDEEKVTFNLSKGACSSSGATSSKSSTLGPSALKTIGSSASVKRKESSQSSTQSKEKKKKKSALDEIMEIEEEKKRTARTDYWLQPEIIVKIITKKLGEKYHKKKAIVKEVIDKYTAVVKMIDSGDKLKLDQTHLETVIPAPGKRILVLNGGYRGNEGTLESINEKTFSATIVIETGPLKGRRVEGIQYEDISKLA
As to the kind of experiment: co-IP; endogenous immunoprecipitation of KIN from KYSE30 samples; blots for DHX9, DDX5 and RPS15.

Sequences of proteins named here, by UniProt entry; tags and fusion partners are left off.
UniProt P17844: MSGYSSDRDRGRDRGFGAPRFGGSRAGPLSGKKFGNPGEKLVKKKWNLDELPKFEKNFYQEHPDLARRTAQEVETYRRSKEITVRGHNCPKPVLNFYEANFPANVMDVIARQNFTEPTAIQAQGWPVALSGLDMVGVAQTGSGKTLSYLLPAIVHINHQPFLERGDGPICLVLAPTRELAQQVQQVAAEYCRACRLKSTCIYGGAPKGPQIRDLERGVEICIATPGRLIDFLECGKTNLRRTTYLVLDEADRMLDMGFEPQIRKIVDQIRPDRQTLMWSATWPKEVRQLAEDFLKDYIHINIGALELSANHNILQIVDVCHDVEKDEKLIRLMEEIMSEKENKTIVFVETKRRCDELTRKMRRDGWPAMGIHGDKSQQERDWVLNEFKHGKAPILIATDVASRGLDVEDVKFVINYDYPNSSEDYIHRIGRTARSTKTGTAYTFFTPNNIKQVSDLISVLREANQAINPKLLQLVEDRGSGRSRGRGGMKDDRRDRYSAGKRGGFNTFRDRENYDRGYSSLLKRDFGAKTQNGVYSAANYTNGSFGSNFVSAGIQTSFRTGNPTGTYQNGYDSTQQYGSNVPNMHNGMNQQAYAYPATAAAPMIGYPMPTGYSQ

This note sets out measurements from publication PMC12354822.

These are yes or no findings as the source states them, for the method shown. In cells and extracts the contact can be indirect. Some results given as binding are weak or reduced against the parent protein; the word gives no strength.

On to DDX5 (from UniProt P17844 1-614), for which the binding entry is on record as “binds”.
